# No constants are given. Whether binding was seen depends on the method and setting. Binding seen in cells or lysates may run through a third protein. Some results given as binding are weak or reduced against the parent protein; the word gives no strength.
# By UniProt entry, the sequences of proteins in these tests, tags left out. Where a name states a change or a piece, a line headed by the entry shows the natural chain unless it says otherwise. Residues count along the entry.
# UniProt P07204, residues 19-575: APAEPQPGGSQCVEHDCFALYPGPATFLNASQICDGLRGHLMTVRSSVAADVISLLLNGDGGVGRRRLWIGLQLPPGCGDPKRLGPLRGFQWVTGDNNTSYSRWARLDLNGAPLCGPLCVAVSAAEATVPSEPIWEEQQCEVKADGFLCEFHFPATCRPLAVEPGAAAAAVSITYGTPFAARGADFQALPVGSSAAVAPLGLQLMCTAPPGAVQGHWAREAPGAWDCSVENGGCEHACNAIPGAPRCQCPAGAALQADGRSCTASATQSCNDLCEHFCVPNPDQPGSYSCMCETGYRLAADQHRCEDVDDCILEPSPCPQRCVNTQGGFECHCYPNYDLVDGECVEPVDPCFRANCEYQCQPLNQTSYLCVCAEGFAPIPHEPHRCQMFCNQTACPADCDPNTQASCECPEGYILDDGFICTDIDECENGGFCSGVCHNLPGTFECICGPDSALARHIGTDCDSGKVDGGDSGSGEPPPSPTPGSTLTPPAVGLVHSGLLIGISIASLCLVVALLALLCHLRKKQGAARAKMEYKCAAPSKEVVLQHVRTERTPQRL
# UniProt Q05655: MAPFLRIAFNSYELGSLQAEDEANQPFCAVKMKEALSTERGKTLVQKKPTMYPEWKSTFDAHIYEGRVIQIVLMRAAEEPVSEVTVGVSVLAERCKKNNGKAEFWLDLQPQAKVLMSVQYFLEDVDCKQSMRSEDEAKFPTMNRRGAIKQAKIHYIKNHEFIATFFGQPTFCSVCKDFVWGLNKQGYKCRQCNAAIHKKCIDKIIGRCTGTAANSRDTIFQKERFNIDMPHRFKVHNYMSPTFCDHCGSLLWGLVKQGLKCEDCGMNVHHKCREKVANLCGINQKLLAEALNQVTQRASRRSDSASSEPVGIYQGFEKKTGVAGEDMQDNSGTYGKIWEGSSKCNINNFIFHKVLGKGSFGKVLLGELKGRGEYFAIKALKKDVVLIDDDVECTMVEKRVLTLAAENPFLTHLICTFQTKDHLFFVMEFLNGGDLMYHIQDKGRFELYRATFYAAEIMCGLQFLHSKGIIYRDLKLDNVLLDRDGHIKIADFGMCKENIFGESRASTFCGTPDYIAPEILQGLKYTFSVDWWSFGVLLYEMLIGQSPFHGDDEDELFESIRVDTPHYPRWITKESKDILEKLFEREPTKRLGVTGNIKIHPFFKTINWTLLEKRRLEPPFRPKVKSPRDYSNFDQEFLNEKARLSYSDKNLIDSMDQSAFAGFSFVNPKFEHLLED
# UniProt P49023: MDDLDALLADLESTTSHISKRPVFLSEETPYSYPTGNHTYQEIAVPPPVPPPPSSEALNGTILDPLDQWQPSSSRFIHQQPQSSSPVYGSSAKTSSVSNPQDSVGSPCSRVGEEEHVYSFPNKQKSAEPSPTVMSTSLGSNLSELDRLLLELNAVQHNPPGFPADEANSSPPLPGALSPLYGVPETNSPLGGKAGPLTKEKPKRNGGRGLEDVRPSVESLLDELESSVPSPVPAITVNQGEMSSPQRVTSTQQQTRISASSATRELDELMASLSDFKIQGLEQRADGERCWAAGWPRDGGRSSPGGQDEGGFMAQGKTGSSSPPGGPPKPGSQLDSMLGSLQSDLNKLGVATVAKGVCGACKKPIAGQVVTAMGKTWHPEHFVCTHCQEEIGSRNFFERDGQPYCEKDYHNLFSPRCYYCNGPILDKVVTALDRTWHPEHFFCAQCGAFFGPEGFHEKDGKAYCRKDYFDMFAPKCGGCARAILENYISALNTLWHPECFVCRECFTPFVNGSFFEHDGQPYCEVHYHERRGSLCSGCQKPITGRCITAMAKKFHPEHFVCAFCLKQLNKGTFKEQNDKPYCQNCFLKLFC
# UniProt P53667: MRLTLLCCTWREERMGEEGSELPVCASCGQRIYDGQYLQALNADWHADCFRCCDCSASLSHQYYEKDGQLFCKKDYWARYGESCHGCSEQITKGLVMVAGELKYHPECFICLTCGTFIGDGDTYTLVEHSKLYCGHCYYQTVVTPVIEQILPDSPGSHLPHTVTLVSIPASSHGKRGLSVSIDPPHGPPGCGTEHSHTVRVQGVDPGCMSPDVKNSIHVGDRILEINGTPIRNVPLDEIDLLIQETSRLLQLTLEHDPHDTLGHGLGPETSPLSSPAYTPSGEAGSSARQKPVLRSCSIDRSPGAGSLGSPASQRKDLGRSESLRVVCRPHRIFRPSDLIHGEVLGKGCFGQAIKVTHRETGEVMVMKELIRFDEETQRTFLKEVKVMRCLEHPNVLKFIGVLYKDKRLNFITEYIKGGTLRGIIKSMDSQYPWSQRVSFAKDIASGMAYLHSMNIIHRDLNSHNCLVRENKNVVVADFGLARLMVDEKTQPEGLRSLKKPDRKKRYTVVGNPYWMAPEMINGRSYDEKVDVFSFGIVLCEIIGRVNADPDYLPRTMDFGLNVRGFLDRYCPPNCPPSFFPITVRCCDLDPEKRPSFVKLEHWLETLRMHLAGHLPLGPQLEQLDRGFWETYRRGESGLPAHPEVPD
# UniProt Q14289: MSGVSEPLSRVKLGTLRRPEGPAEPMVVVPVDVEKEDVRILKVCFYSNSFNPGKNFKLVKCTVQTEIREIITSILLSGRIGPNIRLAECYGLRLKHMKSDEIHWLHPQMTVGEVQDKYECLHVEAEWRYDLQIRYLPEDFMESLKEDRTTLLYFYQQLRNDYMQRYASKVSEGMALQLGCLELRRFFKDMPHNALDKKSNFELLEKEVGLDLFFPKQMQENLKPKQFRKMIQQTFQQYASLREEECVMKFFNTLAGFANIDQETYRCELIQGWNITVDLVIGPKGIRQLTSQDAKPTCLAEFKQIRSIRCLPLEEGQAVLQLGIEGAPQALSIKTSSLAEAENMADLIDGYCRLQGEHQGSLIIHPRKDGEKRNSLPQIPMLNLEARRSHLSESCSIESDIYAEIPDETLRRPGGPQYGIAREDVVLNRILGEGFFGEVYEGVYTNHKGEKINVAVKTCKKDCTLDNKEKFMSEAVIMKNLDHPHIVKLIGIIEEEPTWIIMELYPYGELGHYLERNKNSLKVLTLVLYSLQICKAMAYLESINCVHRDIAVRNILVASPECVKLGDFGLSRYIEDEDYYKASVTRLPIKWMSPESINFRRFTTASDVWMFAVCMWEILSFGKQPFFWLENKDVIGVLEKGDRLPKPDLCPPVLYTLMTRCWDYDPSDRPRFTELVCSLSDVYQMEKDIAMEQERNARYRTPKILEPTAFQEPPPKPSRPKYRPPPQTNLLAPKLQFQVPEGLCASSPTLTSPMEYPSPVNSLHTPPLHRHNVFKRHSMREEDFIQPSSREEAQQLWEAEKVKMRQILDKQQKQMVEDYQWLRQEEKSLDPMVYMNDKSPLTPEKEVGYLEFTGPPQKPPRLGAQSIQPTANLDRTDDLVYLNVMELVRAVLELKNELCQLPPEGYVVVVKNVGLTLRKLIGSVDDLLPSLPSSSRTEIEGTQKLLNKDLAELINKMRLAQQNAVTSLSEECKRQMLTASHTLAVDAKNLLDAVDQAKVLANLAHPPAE
# Assays:
# [1] = target: Thrombomodulin (human (endogenous in THP-1 and in PBMCs)) (UniProt P07204); test: co-IP; lysates of PMA-treated THP-1 cells (150 mM NaCl, 50 mM Tris-HCl pH 7.4, 1% NP-40); IP with rabbit anti-TM antibody (or goat anti-PKCδ antibody), IgG control, protein A/G beads, 4 °C; western blot
# [2] = target: protein kinase C-δ (human (endogenous in THP-1 and in PBMCs)) (UniProt Q05655); test: co-IP; lysates of human PBMCs stimulated with 150 nM PMA for 24 hours; IP with rabbit anti-TM or goat anti-PKCδ antibody, IgG controls; western blot
# [3] = target: protein kinase C-δ (human (endogenous in THP-1 and in PBMCs)) (UniProt Q05655); test: co-IP; lysates of PMA-treated THP-1 cells (150 mM NaCl, 50 mM Tris-HCl pH 7.4, 1% NP-40); IP with rabbit anti-TM antibody (or goat anti-PKCδ antibody), IgG control, protein A/G beads, 4 °C; western blot
# [4] = target: Thrombomodulin (human (endogenous in THP-1 and in PBMCs)) (UniProt P07204); test: co-IP; lysates of human PBMCs stimulated with 150 nM PMA for 24 hours; IP with rabbit anti-TM or goat anti-PKCδ antibody, IgG controls; western blot
binding [1],binding [2],binding [3],binding [4],Substance
binds,,,,paxillin (from UniProt P49023 1-591)
binds,,,,LIM Kinase 1 (from UniProt P53667 1-647) (enzyme)
,binds,binds,,Thrombomodulin (from UniProt P07204 19-575)
binds,,,,PYK2 (from UniProt Q14289 1-1009) (enzyme)
binds,,,binds,protein kinase C-δ (from UniProt Q05655 1-676) (enzyme)

# — article PMC5133669
